For 1 substance, binding results are on record in article PMC5485956.

Chains of the proteins cited; added tags and fusions are not shown.
UniProt P63092: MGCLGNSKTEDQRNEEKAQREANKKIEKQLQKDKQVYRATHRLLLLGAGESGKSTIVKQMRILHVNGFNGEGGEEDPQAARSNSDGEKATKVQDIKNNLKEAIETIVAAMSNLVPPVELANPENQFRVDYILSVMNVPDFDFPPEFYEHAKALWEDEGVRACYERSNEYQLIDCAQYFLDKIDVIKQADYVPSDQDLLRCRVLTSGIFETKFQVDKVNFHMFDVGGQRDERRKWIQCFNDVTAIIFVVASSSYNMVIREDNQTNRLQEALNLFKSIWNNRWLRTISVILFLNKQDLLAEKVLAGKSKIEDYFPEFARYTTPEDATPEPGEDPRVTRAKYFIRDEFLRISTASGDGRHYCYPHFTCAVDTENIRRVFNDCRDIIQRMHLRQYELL
UniProt P35408: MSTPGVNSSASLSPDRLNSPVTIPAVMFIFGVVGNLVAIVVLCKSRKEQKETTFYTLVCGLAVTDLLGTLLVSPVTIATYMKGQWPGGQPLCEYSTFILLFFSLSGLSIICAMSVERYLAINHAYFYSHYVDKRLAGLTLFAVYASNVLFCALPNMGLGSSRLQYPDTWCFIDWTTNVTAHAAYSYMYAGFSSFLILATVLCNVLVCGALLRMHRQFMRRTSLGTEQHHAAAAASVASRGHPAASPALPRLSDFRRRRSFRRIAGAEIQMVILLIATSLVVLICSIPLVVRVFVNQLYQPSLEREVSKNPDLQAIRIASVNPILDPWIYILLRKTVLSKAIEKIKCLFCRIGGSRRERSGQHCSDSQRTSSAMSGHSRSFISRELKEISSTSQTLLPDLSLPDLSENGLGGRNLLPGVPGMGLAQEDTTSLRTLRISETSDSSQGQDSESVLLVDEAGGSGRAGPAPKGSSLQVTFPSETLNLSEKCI

In this assay the target is Gα-s (human (endogenous in LoVo)) (UniProt P63092). Description: co-IP; LoVo cells treated with PGE2 (5 or 10 μM, 6 h); lysate (1% Triton X-100, 50 mM HEPES, 150 mM NaCl) precipitated with Gα-s antibody and Protein G PLUS Agarose at 4 °C; immunoblot for Gα-s, EP2 and EP4. Background: In western blotting, separated proteins are transferred to a membrane and probed.

No constants are given. Whether binding was seen depends on the method and setting. In cells and extracts the contact can be indirect. Some binding calls cover weakened binding; strength is not graded here.

On to “EP4 (from UniProt P35408 1-488) (receptor)”, for which the binding result is “binds”.
